The values below come from article PMC11026275.

By UniProt entry, the sequences of proteins in these tests, tags left out.
UniProt Q39057: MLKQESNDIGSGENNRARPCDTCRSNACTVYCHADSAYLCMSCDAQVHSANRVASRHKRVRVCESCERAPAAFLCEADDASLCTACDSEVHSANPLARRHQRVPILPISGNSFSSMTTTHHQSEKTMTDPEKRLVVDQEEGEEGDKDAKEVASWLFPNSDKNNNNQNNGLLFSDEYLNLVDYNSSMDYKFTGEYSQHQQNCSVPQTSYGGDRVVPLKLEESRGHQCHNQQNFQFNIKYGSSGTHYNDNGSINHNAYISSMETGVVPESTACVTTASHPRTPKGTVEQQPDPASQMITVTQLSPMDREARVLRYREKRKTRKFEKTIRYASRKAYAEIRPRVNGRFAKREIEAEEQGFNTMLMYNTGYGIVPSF
UniProt Q94BT6: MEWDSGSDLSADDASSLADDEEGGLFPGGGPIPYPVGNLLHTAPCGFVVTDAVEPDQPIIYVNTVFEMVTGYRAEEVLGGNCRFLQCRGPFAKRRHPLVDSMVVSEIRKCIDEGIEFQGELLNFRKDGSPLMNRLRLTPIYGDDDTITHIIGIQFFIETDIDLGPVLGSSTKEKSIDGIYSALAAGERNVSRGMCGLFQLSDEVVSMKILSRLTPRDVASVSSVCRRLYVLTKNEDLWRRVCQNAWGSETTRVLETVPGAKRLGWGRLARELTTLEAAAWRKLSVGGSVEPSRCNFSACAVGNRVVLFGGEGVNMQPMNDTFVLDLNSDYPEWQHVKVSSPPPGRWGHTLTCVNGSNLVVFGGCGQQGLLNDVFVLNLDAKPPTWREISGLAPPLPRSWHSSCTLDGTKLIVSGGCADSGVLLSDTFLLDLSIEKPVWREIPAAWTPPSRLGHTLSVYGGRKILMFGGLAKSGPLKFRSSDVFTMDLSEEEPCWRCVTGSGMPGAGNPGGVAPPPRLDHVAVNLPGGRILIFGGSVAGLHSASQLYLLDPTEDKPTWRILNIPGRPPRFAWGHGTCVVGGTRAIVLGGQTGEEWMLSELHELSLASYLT

Results are given in words; binding and its absence hold for the method and conditions named. Binding seen in cells or lysates may run through a third protein. Some results given as binding are weak or reduced against the parent protein; the word gives no strength. For some assays here: Sequences can lack the tags named with a protein.

Assay [1] concerns the target HA-FKF1, wild type, expressed from the FKF1 promoter in transgenic Arabidopsis (Arabidopsis thaliana), Q9C9W9. Kind of assay: co-IP; 10-day-old transgenic Arabidopsis seedlings under LDs, sampled at ZT12; HA-tagged FKF1 immunoprecipitated with anti-HA antibody, endogenous COP1 detected with anti-COP1 antibody. Conditions: remark: other sources report otherwise.
In assay [2] the target is FKF1 (FLAVIN-BINDING, KELCH REPEAT, F-BOX 1), wild type, transiently overexpressed in Nicotiana benthamiana (Arabidopsis thaliana) (UniProt Q9C9W9). Kind of assay: co-IP; proteins transiently co-expressed in Nicotiana benthamiana leaves (3 days under LDs); TAP-tagged protein immunoprecipitated with anti-Protein A antibody, HA-tagged protein detected with anti-HA.
For assay [3], the target named is CONSTANS (CO), TAP-tagged, transiently overexpressed in Nicotiana benthamiana (Arabidopsis thaliana) (UniProt Q39057). Described as above.
Assay [4] deals with ZEITLUPE (ZTL), TAP-tagged, transiently overexpressed in Nicotiana benthamiana (Arabidopsis thaliana) (UniProt Q94BT6). Described as above.
Assay [5] has as its target T1, GIGANTEA (GI), TAP-tagged, expressed from the GI promoter in transgenic Arabidopsis (Arabidopsis thaliana) (UniProt Q9SQI2).
T1 sequence: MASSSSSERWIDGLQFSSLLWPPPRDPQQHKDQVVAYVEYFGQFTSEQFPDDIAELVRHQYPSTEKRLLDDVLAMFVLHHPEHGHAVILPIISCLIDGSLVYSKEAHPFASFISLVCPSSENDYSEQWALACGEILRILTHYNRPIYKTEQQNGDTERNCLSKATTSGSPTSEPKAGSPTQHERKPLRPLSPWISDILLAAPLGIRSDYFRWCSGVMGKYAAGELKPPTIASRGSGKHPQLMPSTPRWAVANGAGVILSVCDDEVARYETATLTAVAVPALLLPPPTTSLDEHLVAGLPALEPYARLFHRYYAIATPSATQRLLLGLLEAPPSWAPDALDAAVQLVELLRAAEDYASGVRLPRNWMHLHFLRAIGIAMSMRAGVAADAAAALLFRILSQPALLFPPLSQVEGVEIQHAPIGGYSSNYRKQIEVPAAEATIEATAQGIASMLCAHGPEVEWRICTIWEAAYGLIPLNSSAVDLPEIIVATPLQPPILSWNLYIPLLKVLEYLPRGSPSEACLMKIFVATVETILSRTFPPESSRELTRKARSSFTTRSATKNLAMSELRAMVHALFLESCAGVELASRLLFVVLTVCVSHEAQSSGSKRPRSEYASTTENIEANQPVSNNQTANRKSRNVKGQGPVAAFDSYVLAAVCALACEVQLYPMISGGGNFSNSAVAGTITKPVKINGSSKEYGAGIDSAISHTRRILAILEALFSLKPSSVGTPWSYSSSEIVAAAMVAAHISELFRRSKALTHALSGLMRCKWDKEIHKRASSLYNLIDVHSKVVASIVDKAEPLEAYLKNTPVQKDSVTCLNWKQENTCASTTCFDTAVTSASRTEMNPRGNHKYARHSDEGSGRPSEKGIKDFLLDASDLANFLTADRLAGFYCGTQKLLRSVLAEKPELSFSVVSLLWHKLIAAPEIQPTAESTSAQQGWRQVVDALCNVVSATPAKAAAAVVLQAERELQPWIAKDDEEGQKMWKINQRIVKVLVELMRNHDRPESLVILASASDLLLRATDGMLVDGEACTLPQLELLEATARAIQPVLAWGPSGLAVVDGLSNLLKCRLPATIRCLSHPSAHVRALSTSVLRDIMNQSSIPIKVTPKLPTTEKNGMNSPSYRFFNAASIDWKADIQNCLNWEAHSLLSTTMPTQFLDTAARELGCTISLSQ
Kind of assay: co-IP; 10-day-old transgenic Arabidopsis seedlings under LDs, harvested at ZT12; GI-TAP immunoprecipitated with anti-Protein A antibody, HA-FKF1 detected with anti-HA; also under white, red or blue light (Supplementary Fig. S3).

B1: CONSTITUTIVE PHOTOMORPHOGENIC 1 (COP1), endogenous, P43254 1-675 (protein)
chain: MEEISTDPVVPAVKPDPRTSSVGEGANRHENDDGGSGGSEIGAPDLDKDLLCPICMQIIKDAFLTACGHSFCYMCIITHLRNKSDCPCCSQHLTNNQLYPNFLLDKLLKKTSARHVSKTASPLDQFREALQRGCDVSIKEVDNLLTLLAERKRKMEQEEAERNMQILLDFLHCLRKQKVDELNEVQTDLQYIKEDINAVERHRIDLYRARDRYSVKLRMLGDDPSTRNAWPHEKNQIGFNSNSLSIRGGNFVGNYQNKKVEGKAQGSSHGLPKKDALSGSDSQSLNQSTVSMARKKRIHAQFNDLQECYLQKRRQLADQPNSKQENDKSVVRREGYSNGLADFQSVLTTFTRYSRLRVIAEIRHGDIFHSANIVSSIEFDRDDELFATAGVSRCIKVFDFSSVVNEPADMQCPIVEMSTRSKLSCLSWNKHEKNHIASSDYEGIVTVWDVTTRQSLMEYEEHEKRAWSVDFSRTEPSMLVSGSDDCKVKVWCTRQEASVINIDMKANICCVKYNPGSSNYIAVGSADHHIHYYDLRNISQPLHVFSGHKKAVSYVKFLSNNELASASTDSTLRLWDVKDNLPVRTFRGHTNEKNFVGLTVNSEYLACGSETNEVYVYHKEITRPVTSHRFGSPDMDDAEEEAGSYFISAVCWKSDSPTMLTANSQGTIKVLVLAA
Regarding B1, the binding entry in assay [1] is listed as “binds”.

B2: FKF1 I160R variant, HA-tagged, transiently overexpressed in Nicotiana benthamiana (protein, UniProt Q9C9W9 1-619)
chain: MAREHAIGEATGKRKKRGRVEEAEEYCNDGIEEQVEDEKLPLEVGMFYYPMTPPSFIVSDALEPDFPLIYVNRVFEVFTGYRADEVLGRNCRFLQYRDPRAQRRHPLVDPVVVSEIRRCLEEGIEFQGELLNFRKDGTPLVNRLRLAPIRDDDGTITHVRGIQVFSETTIDLDRVSYPVFKHKQQLDQTSECLFPSGSPRFKEHHEDFCGILQLSDEVLAHNILSRLTPRDVASIGSACRRLRQLTKNESVRKMVCQNAWGKEITGTLEIMTKKLRWGRLARELTTLEAVCWRKFTVGGIVQPSRCNFSACAVGNRLVLFGGEGVNMQPLDDTFVLNLDAECPEWQRVRVTSSPPGRWGHTLSCLNGSWLVVFGGCGRQGLLNDVFVLDLDAKHPTWKEVAGGTPPLPRSWHSSCTIEGSKLVVSGGCTDAGVLLSDTFLLDLTTDKPTWKEIPTSWAPPSRLGHSLSVFGRTKILMFGGLANSGHLKLRSGEAYTIDLEDEEPRWRELECSAFPGVVVPPPRLDHVAVSMPCGRVIIFGGSIAGLHSPSQLFLIDPAEEKPSWRILNVPGKPPKLAWGHSTCVVGGTRVLVLGGHTGEEWILNELHELCLASRQDSDL
As to B2, the binding result in assay [2], in assay [3] and in assay [4] was “binds” in each case.

B3: HA-FKF1 I160R, full-length FKF1 I160R expressed from the FKF1 promoter in transgenic Arabidopsis (protein, UniProt Q9C9W9 1-619)
chain: B2 chain
Consider B3, for which the binding result in assay [5] is listed as “binds”.
